# Results as given in the supplement of paper PMC10849652.
# Protein sequences, listed by entry. Tags and fused reporters are not part of them. Lines headed by an entry give the natural chain unless they say otherwise; changes in a name come on top.
# UniProt P11177, whole entry, looked up: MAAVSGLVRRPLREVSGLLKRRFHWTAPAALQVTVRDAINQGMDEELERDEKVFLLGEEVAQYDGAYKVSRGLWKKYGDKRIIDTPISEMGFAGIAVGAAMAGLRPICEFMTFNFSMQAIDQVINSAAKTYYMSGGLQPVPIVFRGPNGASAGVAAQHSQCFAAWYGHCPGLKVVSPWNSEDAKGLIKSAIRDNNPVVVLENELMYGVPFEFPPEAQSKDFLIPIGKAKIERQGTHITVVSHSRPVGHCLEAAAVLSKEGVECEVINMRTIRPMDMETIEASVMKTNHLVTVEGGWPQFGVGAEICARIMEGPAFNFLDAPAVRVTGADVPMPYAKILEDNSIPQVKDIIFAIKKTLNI
# UniProt Q9NR12, whole entry, looked up: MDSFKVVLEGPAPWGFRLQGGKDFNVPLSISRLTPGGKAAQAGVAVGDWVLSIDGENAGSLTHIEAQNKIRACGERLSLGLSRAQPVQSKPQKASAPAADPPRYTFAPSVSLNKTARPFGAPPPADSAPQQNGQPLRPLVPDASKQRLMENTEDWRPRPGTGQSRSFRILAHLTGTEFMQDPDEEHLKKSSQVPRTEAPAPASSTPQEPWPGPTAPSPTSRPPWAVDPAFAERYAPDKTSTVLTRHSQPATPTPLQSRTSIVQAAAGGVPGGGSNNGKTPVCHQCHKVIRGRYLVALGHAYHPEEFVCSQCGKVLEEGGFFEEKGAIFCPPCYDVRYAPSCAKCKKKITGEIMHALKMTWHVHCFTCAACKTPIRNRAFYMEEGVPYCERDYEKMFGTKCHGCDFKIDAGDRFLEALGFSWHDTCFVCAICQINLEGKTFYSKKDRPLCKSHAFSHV
# UniProt P13667: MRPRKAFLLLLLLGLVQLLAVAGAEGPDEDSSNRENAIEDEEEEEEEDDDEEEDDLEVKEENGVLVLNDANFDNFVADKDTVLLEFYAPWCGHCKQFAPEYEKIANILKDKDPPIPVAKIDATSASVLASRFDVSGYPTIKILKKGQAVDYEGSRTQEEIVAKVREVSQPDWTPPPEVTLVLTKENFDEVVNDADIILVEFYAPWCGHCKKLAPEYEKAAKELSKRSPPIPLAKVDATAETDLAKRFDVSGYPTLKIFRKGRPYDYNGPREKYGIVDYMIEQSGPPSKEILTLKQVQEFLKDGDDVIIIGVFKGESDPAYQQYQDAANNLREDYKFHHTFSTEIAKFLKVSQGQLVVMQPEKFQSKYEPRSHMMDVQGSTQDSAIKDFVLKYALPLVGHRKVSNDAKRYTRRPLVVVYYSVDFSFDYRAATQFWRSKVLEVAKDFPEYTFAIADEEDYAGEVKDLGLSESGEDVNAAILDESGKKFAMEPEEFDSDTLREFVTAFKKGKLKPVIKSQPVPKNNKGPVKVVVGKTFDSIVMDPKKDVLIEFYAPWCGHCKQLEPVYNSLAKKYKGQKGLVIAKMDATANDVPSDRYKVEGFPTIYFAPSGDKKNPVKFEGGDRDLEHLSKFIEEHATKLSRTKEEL
# UniProt P61457: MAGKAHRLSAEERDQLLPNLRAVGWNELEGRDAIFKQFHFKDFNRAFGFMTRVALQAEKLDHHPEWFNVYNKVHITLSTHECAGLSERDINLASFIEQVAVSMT
# UniProt Q29RF7: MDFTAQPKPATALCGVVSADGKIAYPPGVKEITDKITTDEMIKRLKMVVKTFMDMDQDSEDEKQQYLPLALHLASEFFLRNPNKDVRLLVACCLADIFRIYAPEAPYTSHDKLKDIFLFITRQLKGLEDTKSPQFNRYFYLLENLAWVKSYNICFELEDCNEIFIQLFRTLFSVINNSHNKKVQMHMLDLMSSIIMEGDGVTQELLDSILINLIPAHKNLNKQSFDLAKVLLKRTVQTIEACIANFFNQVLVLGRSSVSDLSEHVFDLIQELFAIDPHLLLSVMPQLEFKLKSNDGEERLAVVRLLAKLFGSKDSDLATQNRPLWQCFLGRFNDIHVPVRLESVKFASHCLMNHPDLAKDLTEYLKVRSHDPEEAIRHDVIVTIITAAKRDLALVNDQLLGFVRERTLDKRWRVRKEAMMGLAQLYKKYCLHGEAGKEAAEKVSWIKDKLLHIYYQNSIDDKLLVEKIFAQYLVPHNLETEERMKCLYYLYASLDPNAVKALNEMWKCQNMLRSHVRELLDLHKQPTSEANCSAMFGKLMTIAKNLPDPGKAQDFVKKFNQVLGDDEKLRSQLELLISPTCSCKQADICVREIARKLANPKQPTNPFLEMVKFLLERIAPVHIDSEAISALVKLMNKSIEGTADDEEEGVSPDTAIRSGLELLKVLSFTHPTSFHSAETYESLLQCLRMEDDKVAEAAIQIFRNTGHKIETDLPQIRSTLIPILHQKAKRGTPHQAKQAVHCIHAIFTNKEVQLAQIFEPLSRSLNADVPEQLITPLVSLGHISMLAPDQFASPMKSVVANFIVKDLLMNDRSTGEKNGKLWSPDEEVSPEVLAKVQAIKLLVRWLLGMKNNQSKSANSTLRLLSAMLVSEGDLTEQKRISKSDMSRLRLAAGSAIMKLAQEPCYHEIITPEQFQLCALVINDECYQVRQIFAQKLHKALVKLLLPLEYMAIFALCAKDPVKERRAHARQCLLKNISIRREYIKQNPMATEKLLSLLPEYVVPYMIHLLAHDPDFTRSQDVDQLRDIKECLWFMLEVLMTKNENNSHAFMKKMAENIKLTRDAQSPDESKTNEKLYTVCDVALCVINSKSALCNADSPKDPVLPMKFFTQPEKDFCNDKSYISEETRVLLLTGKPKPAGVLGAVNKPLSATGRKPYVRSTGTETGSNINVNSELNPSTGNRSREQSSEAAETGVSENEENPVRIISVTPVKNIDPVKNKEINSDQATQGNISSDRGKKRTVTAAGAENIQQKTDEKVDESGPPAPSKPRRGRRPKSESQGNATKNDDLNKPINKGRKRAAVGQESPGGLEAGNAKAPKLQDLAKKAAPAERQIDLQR
# UniProt Q13371: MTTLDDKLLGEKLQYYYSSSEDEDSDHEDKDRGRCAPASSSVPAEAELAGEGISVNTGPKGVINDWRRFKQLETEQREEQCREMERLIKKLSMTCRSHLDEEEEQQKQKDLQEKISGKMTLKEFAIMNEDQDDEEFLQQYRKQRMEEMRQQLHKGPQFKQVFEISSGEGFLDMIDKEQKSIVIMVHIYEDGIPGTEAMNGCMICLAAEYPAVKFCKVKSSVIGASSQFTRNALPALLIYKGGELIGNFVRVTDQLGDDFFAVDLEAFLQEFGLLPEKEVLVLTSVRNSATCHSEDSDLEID
# UniProt Q14690: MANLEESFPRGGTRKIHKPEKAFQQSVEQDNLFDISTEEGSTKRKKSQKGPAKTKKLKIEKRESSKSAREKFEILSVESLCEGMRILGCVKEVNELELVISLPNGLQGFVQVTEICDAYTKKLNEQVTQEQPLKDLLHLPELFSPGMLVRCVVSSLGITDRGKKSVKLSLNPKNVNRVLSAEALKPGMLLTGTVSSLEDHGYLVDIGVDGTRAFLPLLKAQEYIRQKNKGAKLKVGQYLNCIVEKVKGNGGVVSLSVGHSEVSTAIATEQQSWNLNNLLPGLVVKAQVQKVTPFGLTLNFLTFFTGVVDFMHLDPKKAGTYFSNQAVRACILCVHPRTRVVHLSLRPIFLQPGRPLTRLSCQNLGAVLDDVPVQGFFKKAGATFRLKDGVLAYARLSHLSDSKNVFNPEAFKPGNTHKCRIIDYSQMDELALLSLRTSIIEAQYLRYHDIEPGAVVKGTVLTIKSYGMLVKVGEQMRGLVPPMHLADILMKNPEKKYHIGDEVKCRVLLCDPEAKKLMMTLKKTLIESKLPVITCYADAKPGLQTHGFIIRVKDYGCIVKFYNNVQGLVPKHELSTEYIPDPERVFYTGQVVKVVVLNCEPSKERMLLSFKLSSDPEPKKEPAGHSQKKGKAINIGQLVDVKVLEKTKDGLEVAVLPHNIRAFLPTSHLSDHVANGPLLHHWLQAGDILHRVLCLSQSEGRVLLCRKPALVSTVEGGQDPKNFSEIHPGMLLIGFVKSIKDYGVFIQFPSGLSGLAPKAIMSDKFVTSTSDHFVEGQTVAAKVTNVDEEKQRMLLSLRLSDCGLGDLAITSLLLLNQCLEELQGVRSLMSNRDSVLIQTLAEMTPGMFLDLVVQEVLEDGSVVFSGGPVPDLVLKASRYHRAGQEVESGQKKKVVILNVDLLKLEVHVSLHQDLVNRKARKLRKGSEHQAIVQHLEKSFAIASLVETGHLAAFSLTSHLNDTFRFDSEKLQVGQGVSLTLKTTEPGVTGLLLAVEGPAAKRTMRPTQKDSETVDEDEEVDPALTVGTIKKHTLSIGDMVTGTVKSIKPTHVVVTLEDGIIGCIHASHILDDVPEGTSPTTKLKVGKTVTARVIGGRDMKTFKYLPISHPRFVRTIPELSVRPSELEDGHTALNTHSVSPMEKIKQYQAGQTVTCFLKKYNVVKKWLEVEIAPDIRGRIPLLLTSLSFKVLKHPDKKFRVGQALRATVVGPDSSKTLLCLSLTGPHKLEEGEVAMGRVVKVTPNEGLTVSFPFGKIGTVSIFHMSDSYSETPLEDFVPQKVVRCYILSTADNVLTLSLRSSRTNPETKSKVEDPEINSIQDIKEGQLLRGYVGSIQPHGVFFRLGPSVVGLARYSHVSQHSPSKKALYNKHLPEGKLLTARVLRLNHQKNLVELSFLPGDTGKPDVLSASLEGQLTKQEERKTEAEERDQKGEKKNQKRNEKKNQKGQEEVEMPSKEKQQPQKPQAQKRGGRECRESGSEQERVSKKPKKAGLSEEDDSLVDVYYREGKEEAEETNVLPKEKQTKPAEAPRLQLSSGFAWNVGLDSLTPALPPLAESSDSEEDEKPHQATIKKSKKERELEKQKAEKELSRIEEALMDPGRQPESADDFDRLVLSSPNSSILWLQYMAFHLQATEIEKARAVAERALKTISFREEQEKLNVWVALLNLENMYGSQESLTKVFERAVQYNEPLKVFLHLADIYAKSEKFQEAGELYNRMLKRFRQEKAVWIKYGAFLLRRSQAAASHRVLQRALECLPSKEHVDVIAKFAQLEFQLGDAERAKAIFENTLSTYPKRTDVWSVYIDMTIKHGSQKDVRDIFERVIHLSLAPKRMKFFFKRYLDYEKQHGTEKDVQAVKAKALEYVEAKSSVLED
# UniProt Q9NUG6, whole entry, looked up: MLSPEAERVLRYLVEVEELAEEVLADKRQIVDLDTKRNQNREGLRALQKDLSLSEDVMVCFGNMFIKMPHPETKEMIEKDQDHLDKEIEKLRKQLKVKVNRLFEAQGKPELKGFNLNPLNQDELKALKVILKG
# UniProt Q9UHG3: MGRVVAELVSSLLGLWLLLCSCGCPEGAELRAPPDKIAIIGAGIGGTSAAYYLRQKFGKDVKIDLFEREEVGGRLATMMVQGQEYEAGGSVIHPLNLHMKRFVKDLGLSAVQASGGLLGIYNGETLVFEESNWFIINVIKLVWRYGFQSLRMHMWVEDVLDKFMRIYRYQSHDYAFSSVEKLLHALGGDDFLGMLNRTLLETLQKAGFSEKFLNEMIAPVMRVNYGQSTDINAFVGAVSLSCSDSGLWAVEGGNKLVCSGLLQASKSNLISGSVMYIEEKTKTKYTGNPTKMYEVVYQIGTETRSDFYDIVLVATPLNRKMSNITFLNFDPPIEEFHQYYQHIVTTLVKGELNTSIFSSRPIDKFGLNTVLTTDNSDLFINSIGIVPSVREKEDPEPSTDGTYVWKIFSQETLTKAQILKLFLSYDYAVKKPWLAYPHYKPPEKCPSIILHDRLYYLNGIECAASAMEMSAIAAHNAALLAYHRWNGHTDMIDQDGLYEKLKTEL
# UniProt P17858: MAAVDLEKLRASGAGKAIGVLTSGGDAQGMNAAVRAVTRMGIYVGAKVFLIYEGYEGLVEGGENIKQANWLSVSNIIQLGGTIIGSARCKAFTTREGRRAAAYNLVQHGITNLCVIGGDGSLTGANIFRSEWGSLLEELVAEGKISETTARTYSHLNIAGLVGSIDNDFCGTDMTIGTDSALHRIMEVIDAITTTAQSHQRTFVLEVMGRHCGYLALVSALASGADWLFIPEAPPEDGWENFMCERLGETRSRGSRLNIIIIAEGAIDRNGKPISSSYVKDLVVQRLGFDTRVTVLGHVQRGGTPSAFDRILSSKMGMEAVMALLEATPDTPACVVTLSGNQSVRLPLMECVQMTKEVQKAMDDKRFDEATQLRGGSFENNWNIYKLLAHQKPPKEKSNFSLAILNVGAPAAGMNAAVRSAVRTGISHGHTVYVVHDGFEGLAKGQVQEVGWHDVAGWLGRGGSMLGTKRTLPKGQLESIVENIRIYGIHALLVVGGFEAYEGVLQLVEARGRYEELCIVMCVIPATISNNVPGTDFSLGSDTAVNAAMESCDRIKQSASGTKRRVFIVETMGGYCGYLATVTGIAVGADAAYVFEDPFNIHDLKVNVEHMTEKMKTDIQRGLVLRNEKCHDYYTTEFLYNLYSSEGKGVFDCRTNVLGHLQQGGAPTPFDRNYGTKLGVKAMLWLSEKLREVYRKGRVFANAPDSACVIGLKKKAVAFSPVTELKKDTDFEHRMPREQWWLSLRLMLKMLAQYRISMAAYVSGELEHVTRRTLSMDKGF
# Some of the results follow.
# Legend:
# Experiment in all cases: log2 fold change, soluble protein after heating vs DMSO (PISA); higher = thermal stabilisation; K562 lysate, 10 uM; active = over 0.2 and 3.5 SD of the protein, either way, in both replicates (recomputed)
# vemurafenib = compound: CCCS(=O)(=O)Nc1ccc(F)c(C(=O)c2c[nH]c3ncc(-c4ccc(Cl)cc4)cc23)c1F [vemurafenib]
# Procedure, shortened: (§1)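 Values give the log-two fold change in thermal stability against solvent controls, from duplicates. Crude K562 extract at 1 mg/mL protein, made by dounce homogenisation in PBS pH 7.4 with 1 mM MgCl2, was treated with 10 μM compound for 30 min. After 3 min heating across 48°C-58°C, aliquots were pooled, adjusted to 0.5% NP-40 at 4°C and centrifuged at 21,000xg for 90 min. The supernatant was measured by TMTpro 16plex LC-MS/MS with channel sums equalised.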
# [1] = compound: CCCS(=O)(=O)Nc1ccc(F)c(C(=O)c2c[nH]c3ncc(Cl)cc23)c1F
# Procedure, shortened: as §1
# barasertib = compound: CCN(CCCOc1ccc2c(Nc3cc(CC(=O)Nc4cccc(F)c4)[nH]n3)ncnc2c1)CCOP(=O)(O)O [barasertib]
# Procedure, shortened: as §1
# [2] = compound: CC[C@@H]1C(=O)N(C)c2cnc(Nc3ccc(C(=O)NC4CCN(C)CC4)cc3OC)nc2N1C1CCCC1
# Procedure, shortened: as §1
# volasertib = compound: CC[C@@H]1C(=O)N(C)c2cnc(Nc3ccc(C(=O)N[C@H]4CC[C@H](N5CCN(CC6CC6)CC5)CC4)cc3OC)nc2N1C(C)C [volasertib]
# Procedure, shortened: as §1
# [3] = compound: CCn1c(C(=O)N(C2CC2)C2CC2)cc2c3c(ncn3C)c(Nc3cc(C)n(C)n3)nc21
# Procedure, shortened: as §1
# [4] = compound: CCn1cc(-c2ccnc3[nH]c(-c4cccc(CN(C)C)c4)cc23)c(-c2ccc(NC(=O)N(C)C)cc2)n1
# Procedure, shortened: as §1
# [5] = compound: CN1CCC(CNc2ccc3ncc(-c4cccc(OC(F)(F)F)c4)n3n2)CC1
# Procedure, shortened: as §1
# saracatinib = compound: CN1CCN(CCOc2cc(OC3CCOCC3)c3c(Nc4c(Cl)ccc5c4OCO5)ncnc3c2)CC1 [saracatinib]
# Procedure, shortened: as §1
# sotrastaurin = compound: CN1CCN(c2nc(C3=C(c4c[nH]c5ccccc45)C(=O)NC3=O)c3ccccc3n2)CC1 [sotrastaurin]
# Procedure, shortened: as §1
Target,log2 fold change (vemurafenib),log2 fold change [1],log2 fold change (barasertib),log2 fold change [2],log2 fold change (volasertib),log2 fold change [3],log2 fold change [4],log2 fold change [5],log2 fold change (saracatinib),log2 fold change (sotrastaurin)
PDHB (UniProt P11177),inactive: 0.047,inactive: 0.014,inactive: -0.025,inactive: -0.009,inactive: 0.008,inactive: 0.015,inactive: -0.028,inactive: -0.05,inactive: -0.009,inactive: 0.031
PES1 (UniProt O00541),inactive: 0.009,inactive: 0.023,inactive: -0.019,inactive: -0.074,inactive: -0.04,inactive: 0.017,inactive: -0.043,inactive: 0.052,inactive: 0.007,inactive: 0.028
PDLIM7 (UniProt Q9NR12),inactive: 0.009,inactive: 0.006,inactive: 0.027,inactive: 0.025,inactive: -0.008,inactive: 0.009,inactive: -0.044,inactive: -0.005,inactive: -0.021,inactive: -0.023
PDIA4 (UniProt P13667),inactive: -0.007,inactive: -0.02,inactive: -0.028,inactive: 0.017,inactive: 0.012,inactive: -0.008,inactive: 0.036,inactive: -0.045,inactive: 0.012,inactive: 0
PCBD1 (UniProt P61457),inactive: -0.002,inactive: 0.003,inactive: 0.041,inactive: 0.062,inactive: 0.03,inactive: -0.05,inactive: -0.085,inactive: 0.001,inactive: 0.022,inactive: 0.044
PBX2 (UniProt P40425),inactive: 0.015,inactive: 0.073,inactive: 0.016,inactive: -0.016,inactive: 0.028,inactive: -0.004,inactive: -0.053,inactive: 0,inactive: 0.027,inactive: 0.033
PDS5A (UniProt Q29RF7),inactive: 0.023,inactive: 0.031,inactive: 0.064,inactive: -0.057,inactive: -0.029,inactive: 0.054,inactive: -0.12,inactive: -0.019,inactive: 0.007,inactive: 0.026
PDZD11 isoform 2 (UniProt Q5EBL8),inactive: -0.006,inactive: 0.02,inactive: 0.129,inactive: 0.079,inactive: 0.022,inactive: -0.04,inactive: -0.026,inactive: 0.004,inactive: 0.011,inactive: -0.014
PDCL (UniProt Q13371),inactive: 0.014,inactive: 0.017,inactive: -0.001,inactive: 0.012,inactive: -0.015,inactive: -0.009,inactive: -0.071,inactive: -0.014,inactive: -0.021,inactive: 0.027
PDCL3 (UniProt Q9H2J4),inactive: 0.052,inactive: 0,inactive: -0.038,inactive: 0.045,inactive: 0.023,inactive: -0.017,inactive: -0.059,inactive: 0.02,inactive: -0.016,inactive: 0.009
PDCD11 (UniProt Q14690),inactive: 0.111,inactive: 0.037,inactive: -0.067,inactive: -0.076,inactive: -0.033,inactive: 0.019,inactive: -0.107,inactive: 0.023,inactive: 0.023,inactive: 0.018
PCYT2 isoform 3 (UniProt Q99447),inactive: 0.003,inactive: -0.017,inactive: 0.053,inactive: 0.03,inactive: -0.044,inactive: -0.002,inactive: -0.069,inactive: 0.02,inactive: -0.007,inactive: 0.009
PELP1 (UniProt Q8IZL8),inactive: -0.04,inactive: 0.007,inactive: 0,inactive: 0.005,inactive: 0.024,inactive: 0.036,inactive: 0.237,inactive: -0.009,inactive: 0.089,inactive: 0.024
PARN (UniProt O95453),inactive: -0.036,inactive: 0.017,inactive: 0.025,inactive: 0.012,inactive: -0.021,inactive: -0.001,inactive: 0.085,inactive: -0.032,inactive: 0.009,inactive: 0.022
PFAS (UniProt O15067),inactive: 0.029,inactive: 0.023,inactive: 0.015,inactive: -0.048,inactive: -0.091,inactive: 0,inactive: -0.023,inactive: 0.001,inactive: -0.013,inactive: -0.015
PFKP (UniProt Q01813),inactive: -0.047,inactive: -0.056,inactive: 0.018,inactive: -0.005,inactive: 0.015,inactive: -0.007,inactive: 0.052,inactive: -0.033,inactive: 0.008,inactive: -0.025
PDCD2 (UniProt Q16342),inactive: 0.004,inactive: -0.095,inactive: 0.042,inactive: -0.064,inactive: 0.006,inactive: 0.016,inactive: -0.073,inactive: 0,inactive: 0.036,inactive: -0.052
PDXK (UniProt O00764),inactive: 0.005,inactive: -0.001,inactive: -0.014,active: 0.329,inactive: 0.025,inactive: -0.004,inactive: -0.134,inactive: 0.156,inactive: -0.023,inactive: -0.016
PGD (UniProt P52209),inactive: 0.018,inactive: -0.006,inactive: -0.018,inactive: -0.022,inactive: 0.004,inactive: -0.002,inactive: 0.052,inactive: -0.055,inactive: 0.003,inactive: 0.004
PCLO (UniProt Q9Y6V0),inactive: 0.068,inactive: 0.018,inactive: 0.03,inactive: 0.144,inactive: -0.015,inactive: -0.03,inactive: -0.518,inactive: 0.364,inactive: -0.045,inactive: -0.008
PCBP2 (UniProt H3BRU6),inactive: 0.13,inactive: -0.031,inactive: -0.115,inactive: 0.085,inactive: 0.036,inactive: -0.082,inactive: -0.041,inactive: 0.047,inactive: 0.1,inactive: 0.179
PDRG1 (UniProt Q9NUG6),inactive: 0.057,inactive: 0.019,inactive: -0.036,inactive: 0.045,inactive: 0.037,inactive: -0.013,inactive: 0.005,inactive: -0.01,inactive: 0.013,inactive: 0.003
PDIA3 (UniProt H7BZJ3),inactive: 0.033,inactive: -0.004,inactive: -0.05,inactive: 0.102,inactive: -0.022,inactive: -0.092,inactive: 0.051,inactive: 0.112,inactive: -0.099,inactive: -0.035
PCGF2 (UniProt P35227),inactive: 0.029,inactive: 0.104,inactive: 0.014,inactive: 0.088,inactive: -0.008,inactive: 0.084,inactive: 0.031,inactive: -0.089,inactive: 0.024,inactive: -0.003
PARP14 (UniProt Q460N5),inactive: 0.067,inactive: 0.062,inactive: 0.038,inactive: 0.007,inactive: 0.001,inactive: 0.003,inactive: -0.08,inactive: 0.075,inactive: 0.119,inactive: -0.058
PCBP2 isoform 3 (UniProt Q15366),inactive: -0.059,inactive: -0.004,inactive: -0.006,inactive: -0.021,inactive: -0.003,inactive: 0.057,inactive: -0.022,inactive: -0.002,inactive: -0.017,inactive: -0.006
PBLD (UniProt P30039),inactive: 0.08,inactive: -0.014,inactive: -0.019,inactive: -0.132,inactive: -0.055,inactive: 0.122,inactive: -0.097,inactive: -0.063,inactive: -0.092,inactive: 0.001
PCYOX1 (UniProt Q9UHG3),inactive: -0.01,inactive: -0.013,inactive: 0.011,inactive: -0.018,inactive: 0.013,inactive: -0.01,inactive: 0.025,inactive: 0.023,inactive: 0.001,inactive: 0.024
PFKL isoform 2 (UniProt P17858),inactive: -0.022,inactive: -0.152,inactive: 0.005,inactive: 0.036,inactive: 0.028,inactive: -0.028,inactive: 0.048,inactive: -0.051,inactive: 0.008,inactive: 0.013

# Record cards, as listed above. Values in the order: log2 fold change (vemurafenib) | log2 fold change [1] | log2 fold change (barasertib) | log2 fold change [2] | log2 fold change (volasertib) | log2 fold change [3] | log2 fold change [4] | log2 fold change [5] | log2 fold change (saracatinib) | log2 fold change (sotrastaurin)
# PDCD2 (UniProt Q16342) in the list: inactive: 0.004 | inactive: -0.095 | inactive: 0.042 | inactive: -0.064 | inactive: 0.006 | inactive: 0.016 | inactive: -0.073 | inactive: 0 | inactive: 0.036 | inactive: -0.052
# PCBP2 isoform 3 (UniProt Q15366) in the list: inactive: -0.059 | inactive: -0.004 | inactive: -0.006 | inactive: -0.021 | inactive: -0.003 | inactive: 0.057 | inactive: -0.022 | inactive: -0.002 | inactive: -0.017 | inactive: -0.006
